Laboratory results from patent US20180236026A1.
Results are given in words; binding and its absence hold for the method and conditions named. In cells and extracts the contact can be indirect. Some binding calls cover weakened binding; strength is not graded here. Sequences can lack the tags named with a protein.

By UniProt entry, the sequences of proteins in these tests, tags left out. Where a name states a change or a piece, a line headed by the entry shows the natural chain unless it says otherwise.
UniProt P32120: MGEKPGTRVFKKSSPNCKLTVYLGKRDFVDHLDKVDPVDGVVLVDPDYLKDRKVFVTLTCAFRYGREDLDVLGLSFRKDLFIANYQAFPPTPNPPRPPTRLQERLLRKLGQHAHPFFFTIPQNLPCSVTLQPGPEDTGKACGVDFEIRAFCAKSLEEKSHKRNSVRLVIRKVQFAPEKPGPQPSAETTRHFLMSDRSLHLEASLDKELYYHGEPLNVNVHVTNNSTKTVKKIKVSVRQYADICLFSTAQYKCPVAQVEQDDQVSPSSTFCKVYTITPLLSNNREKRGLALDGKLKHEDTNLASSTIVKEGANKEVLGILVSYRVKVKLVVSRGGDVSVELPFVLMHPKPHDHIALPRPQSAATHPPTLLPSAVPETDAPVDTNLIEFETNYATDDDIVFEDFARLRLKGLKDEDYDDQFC

Assays:
GST-MKK4 [1] = molecular target: T1, GST-MKK4 (UniProt P45985); assay: MBP pull-down on amylose resin, purified proteins
T1 sequence (looked up): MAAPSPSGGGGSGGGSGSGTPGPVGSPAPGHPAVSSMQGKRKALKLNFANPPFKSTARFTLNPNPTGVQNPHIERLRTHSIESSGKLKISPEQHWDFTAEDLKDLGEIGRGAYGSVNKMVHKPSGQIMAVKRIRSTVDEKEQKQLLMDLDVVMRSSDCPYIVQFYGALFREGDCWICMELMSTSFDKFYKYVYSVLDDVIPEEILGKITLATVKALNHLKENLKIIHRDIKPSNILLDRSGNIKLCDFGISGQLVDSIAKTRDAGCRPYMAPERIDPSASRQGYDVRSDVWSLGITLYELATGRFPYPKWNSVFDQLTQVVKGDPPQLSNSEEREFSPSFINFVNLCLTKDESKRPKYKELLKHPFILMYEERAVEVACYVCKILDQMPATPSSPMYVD

GST-MKK4 [2] = molecular target: T1, GST-MKK4; assay: MBP pull-down on amylose beads, Western blot

**Q.** For “MBP-arrestin-3 (from UniProt P32120 1-420)”, which binding (GST-MKK4 [1]) is on record?
**A.** binds

**Q.** What about the binding (GST-MKK4 [2]) of the same substance?
**A.** binds
